Measurements reported in the supplement of paper PMC4635364.
Where a name gives a salt, the structure may show the parent alone. The list shows a part of the results. This data set is noisy: repeats of one test often differ as much as different tests do.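 ReNCell VM, a human fetal ventral-midbrain neural progenitor line, was differentiated without mitogens. Blinded raters scored images stained for doublecortin (early neurons) or tyrosine hydroxylase (dopaminergic neurons) against untreated wells (0 = no change). Scores were averaged across repeats and both raters, and compounds averaging 2 or more were selected as hits for retesting.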

Columns and labels:
ReNCell VM [1] = experiment: neuronal differentiation score (DCX+ cell fraction vs untreated, manual image score) (score (-3 to 3)); higher = more neuronal differentiation; details: 2 uM, 2 weeks
ReNCell VM [2] = experiment: dopaminergic neuron differentiation score (TH+ cell fraction vs untreated, manual image score) (score (0 to 3)); higher = more TH+ dopaminergic neuron differentiation; details: 2 uM, 4 weeks, BDNF 10 ng/ml + GDNF 10 ng/ml

SMILES	neuronal differentiation score (ReNCell VM [1]; library: LOPAC)	neuronal differentiation score (ReNCell VM [1]; library: Tocriscreen)	dopaminergic neuron differentiation score (ReNCell VM [2]; library: LOPAC)	dopaminergic neuron differentiation score (ReNCell VM [2]; library: Tocriscreen)	neuronal differentiation score (ReNCell VM [1]; library: Prestwick)	dopaminergic neuron differentiation score (ReNCell VM [2]; library: Prestwick)	neuronal differentiation score (ReNCell VM [1]; library: Phytochemical)	dopaminergic neuron differentiation score (ReNCell VM [2]; library: Phytochemical)
N=C(N)SCCc1c[nH]cn1 [Imetit dihydrobromide]	inactive: 0	inactive: 0	inactive: 0	inactive: 0				
COc1ccc(CCN(C)CCc2ccc(OC)c(OC)c2)cc1OC [YS-035 hydrochloride]	inactive: 0	inactive: 0	inactive: 0	inactive: 0				
COC(=O)C1=C(C)NC(C)=C(C(=O)OC(C)C)C1c1cccc2nonc12 (configuration not stated) [Isradipine]		inactive: 0		inactive: 0	inactive: 1	inactive: 0		
O=C(O)C1=CCCNC1 [Guvacine hydrochloride]	inactive: 0	inactive: 0	inactive: 0	inactive: 0				
O=c1cc(-c2ccc(O)c(O)c2)oc2cc(O)cc(O)c12 [Luteolin]					inactive: 0	inactive: 0	inactive: 0	inactive: 0
CC(C)NCC(O)c1ccc(O)c(O)c1 (single isomer, unassigned; (-)) [(-)-Isoproterenol hydrochloride]	inactive: 1		inactive: 0		inactive: 1	inactive: 1		
C=C[C@H]1CN2CC[C@H]1C[C@@H]2[C@@H](O)c1ccnc2ccc(OC)cc12 [Quinidine hydrochloride monohydrate]					inactive: 0	inactive: 0	inactive: 0	inactive: 0
Nc1nc(N)c2nc(-c3ccccc3)c(N)nc2n1 [Triamterene]	inactive: 0		inactive: 0		inactive: 0	inactive: 0		
COc1ccc(Cl)cc1NC(=O)Nc1cc(C)nc2ccccc12	inactive: 0	inactive: 0	inactive: 0	inactive: 0				
O=C(O)c1cccnc1C(=O)O [Quinolinic acid]	inactive: 0	inactive: 0	inactive: 0	inactive: 0				
COc1cc(N)c(Cl)cc1C(=O)NC1CCN(CCCOc2ccc(F)cc2)CC1OC (configuration not stated) [Cisapride]		inactive: 0		inactive: 0	inactive: 0	inactive: 0		
CCOC(=O)N1CCC(=C2c3ccc(Cl)cc3CCc3cccnc32)CC1 [Loratadine]	inactive: 0		inactive: 0		inactive: 0	inactive: 0		
CC12CC3CC(C)(C1)CC(N)(C3)C2 [Memantine hydrochloride]	inactive: 0	inactive: 0	inactive: 0	inactive: 0				
CC(=O)Nc1ccc(O)cc1 [Acetaminophen]		inactive: 0		inactive: 0	inactive: 0	inactive: 0		
COc1ccccc1N1CCN(CC(O)COc2cccc3ccccc23)CC1 (configuration not stated) [Naftopidil dihydrochloride]	inactive: 0		inactive: 0		inactive: 0	inactive: 0		
O=C(c1ccc(F)cc1)C1CCN(CCn2c(=O)[nH]c3ccccc3c2=O)CC1 [Ketanserin tartrate]	inactive: 0	inactive: 0	inactive: 0	inactive: 0				
N/C(=N\C(=O)c1nc(Cl)c(N)nc1N)NCc1ccccc1 [Benzamil hydrochloride]	inactive: 0		inactive: 0		inactive: 0	inactive: 0		
CC[C@]1(O)C[C@H]2CN(CCc3c([nH]c4ccccc34)[C@@](C(=O)OC)(c3cc4c(cc3OC)N(C=O)[C@H]3[C@@](O)(C(=O)OC)[C@H](OC(C)=O)[C@]5(CC)C=CCN6CC[C@]43[C@@H]65)C2)C1 [Vincristine sulfate]	inactive: 0	inactive: 0	inactive: 0	inactive: 0				
N#CC(=C(/N)Sc1ccccc1N)/C(C#N)=C(/N)Sc1ccccc1N	inactive: -2	inactive: 0	inactive: 0	inactive: 1				
C1COC(NC(C2CC2)C2CC2)=N1 [Rilmenidine hemifumarate]	inactive: 0	inactive: 0	inactive: 0	inactive: 0				
C#CCN1C(C)=C(C(=O)OC)C(c2cccc([N+](=O)[O-])c2)C(C(=O)OCC)=C1C (configuration not stated)	inactive: 0	inactive: 0	inactive: 0	inactive: 0				
CC(CCc1ccccc1)NCC(O)c1ccc(O)c(C(N)=O)c1 (configuration not stated) [Labetalol hydrochloride]	inactive: 0		inactive: 0		inactive: 0	inactive: 0		
Cc1nc2ccccn2c(=O)c1CCN1CCC(C(=O)c2ccc(F)cc2)CC1 [Pirenperone]	active: 2		inactive: 0		inactive: 0	inactive: 0		
NC(=O)c1ccc2[nH]ccc2c1	inactive: 0	inactive: 0	inactive: 0	inactive: 0				
Cc1nc2sccn2c(=O)c1CCN1CCC(=C(c2ccc(F)cc2)c2ccc(F)cc2)CC1 [Ritanserin]	inactive: 0	inactive: 1	inactive: 0	inactive: 0				
Cn1cc(C(=O)OCC2CCN(CCNS(C)(=O)=O)CC2)c2ccccc21	inactive: 0	inactive: 0	inactive: 0	inactive: 0				
NC(=O)N1c2ccccc2C=Cc2ccccc21 [Carbamazepine]	inactive: 0		inactive: 0		inactive: 0	inactive: 0		

SMILES	neuronal differentiation score (ReNCell VM [1]; library: LOPAC)	neuronal differentiation score (ReNCell VM [1]; library: Tocriscreen)	dopaminergic neuron differentiation score (ReNCell VM [2]; library: LOPAC)	dopaminergic neuron differentiation score (ReNCell VM [2]; library: Tocriscreen)	neuronal differentiation score (ReNCell VM [1]; library: Prestwick)	dopaminergic neuron differentiation score (ReNCell VM [2]; library: Prestwick)	neuronal differentiation score (ReNCell VM [1]; library: Phytochemical)	dopaminergic neuron differentiation score (ReNCell VM [2]; library: Phytochemical)
CC(=O)[C@H]1CC[C@H]2[C@@H]3CCC4=CC(=O)CC[C@]4(C)[C@H]3CC[C@]12C [Progesterone]	inactive: 1		inactive: 0		inactive: 0	inactive: 0		
C[C@H]1C[C@H]2[C@@H]3CCC4=CC(=O)C=C[C@]4(C)[C@@]3(F)[C@@H](O)C[C@]2(C)[C@@]1(O)C(=O)CO [Betamethasone]	inactive: 0		inactive: 0		inactive: 0	inactive: 0		
CNC1(C)C2CCC(C2)C1(C)C (configuration not stated) [Mecamylamine hydrochloride]	inactive: 0		inactive: 0		inactive: 0	inactive: 0		
Cc1cccc(C)c1NC(=O)C(C)N (configuration not stated) [Tocainide hydrochloride]	inactive: 0		inactive: 0		inactive: 0	inactive: 0		
OC(CN1CCN(c2cccc(Cl)c2)CC1)C(c1ccccc1)c1ccccc1 (configuration not stated)	inactive: 0	inactive: 0	inactive: 0	inactive: 0				
O=C(O)CCc1nc(-c2ccccc2)c(-c2ccccc2)o1 [Oxaprozin]	inactive: 0		inactive: 0		inactive: 0	inactive: 0		
CN(C)c1ccc(/C=C2/C(=O)Nc3ccccc32)cc1	inactive: 0	inactive: 0	inactive: 1	inactive: 0				
CC(=O)N[C@@H](Cc1c[nH]c2ccccc12)C(=O)OCc1cc(C(F)(F)F)cc(C(F)(F)F)c1	inactive: 0	inactive: 1	inactive: 0	inactive: 0				
CCN1CCC[C@H]1CNC(=O)c1c(O)c(Cl)cc(Cl)c1OC [Raclopride]		inactive: 0		inactive: 0	inactive: 0	inactive: 0		
CC(=O)NNC(=O)N1Cc2ccccc2Oc2ccc(Cl)cc21	inactive: 1	inactive: 0	inactive: 0	inactive: 0				
CC(C)(C)c1ccc(C(O)CCCN2CCC(C(O)(c3ccccc3)c3ccccc3)CC2)cc1 (configuration not stated) [Terfenadine]	inactive: 0		inactive: 0		inactive: 0	inactive: 0		
CC(=O)Oc1ccccc1C(=O)O [Acetylsalicylic acid]	inactive: 0		inactive: 0		inactive: 0	inactive: 0		
CN1CCN(CCCN2c3ccccc3Sc3ccc(Cl)cc32)CC1 [Prochlorperazine dimaleate]	inactive: 0		inactive: 0		inactive: 0	active: 2		
Oc1ccc(-c2nc(-c3ccc(F)cc3)c(-c3ccncc3)[nH]2)cc1	inactive: 0	inactive: 0	inactive: 0	inactive: 0				
C[C@]12CCC(=O)C=C1CC[C@@H]1[C@@H]2C(=O)C[C@@]2(C)[C@H]1CC[C@]2(O)C(=O)CO [Cortisone]	inactive: 0		inactive: 0		inactive: 0	inactive: 0		
C[C@]12CC[C@@H]3c4ccc(O)cc4CC[C@H]3[C@@H]1CCC2=O [Estrone]	inactive: 0		inactive: 0		inactive: 0	inactive: 0		
Nc1nc(F)nc2c1ncn2[C@@H]1O[C@H](CO)[C@@H](O)[C@@H]1O [Fludarabine]		inactive: 0		inactive: 0	inactive: 0	inactive: 0		
O=C1NC(=O)c2cc(Nc3ccccc3)c(Nc3ccccc3)cc21	inactive: -1	inactive: 0	inactive: 0	inactive: 0				
O=C1NC(c2cccc([N+](=O)[O-])c2)=CCN1c1ccccc1O [Icilin]	inactive: 0	inactive: 0	inactive: 0	inactive: 0				
CC[N+](C)(C)Cc1ccccc1Br [Bretylium tosylate]	inactive: 0		inactive: 0		inactive: 0	inactive: 0		
NCCCCNCCCN [Spermidine trihydrochloride]	inactive: 0	inactive: 0	inactive: 0	inactive: 1				
CCOC(=O)C1=C(C)NC(C)=C(C(=O)OC)C1c1cccc(Cl)c1Cl (configuration not stated) [Felodipine]	inactive: -1		inactive: 0		inactive: 0	inactive: 0		
O=C(C1CCCCC1)N1CC(=O)N2CCc3ccccc3C2C1 (configuration not stated) [Praziquantel]	inactive: 0		inactive: 0		inactive: 0	inactive: 0		
CCC(C)N(C)C(=O)c1cc2ccccc2c(-c2ccccc2Cl)n1 (configuration not stated)	inactive: 0	inactive: 0	inactive: 0	inactive: 0				
CN(C)CCOC(C)(c1ccccc1)c1ccccn1 (configuration not stated) [Doxylamine succinate]	inactive: 0		inactive: 0		inactive: 0	inactive: 0		
CC(C[N+](C)(C)C)OC(N)=O (configuration not stated) [Bethanechol chloride]	inactive: 0		inactive: 0		inactive: 0	inactive: 0		

At a glance, 2 of the compounds above.
SMILES	neuronal differentiation score (ReNCell VM [1]; library: LOPAC)	neuronal differentiation score (ReNCell VM [1]; library: Tocriscreen)	dopaminergic neuron differentiation score (ReNCell VM [2]; library: LOPAC)	dopaminergic neuron differentiation score (ReNCell VM [2]; library: Tocriscreen)	neuronal differentiation score (ReNCell VM [1]; library: Prestwick)	dopaminergic neuron differentiation score (ReNCell VM [2]; library: Prestwick)	neuronal differentiation score (ReNCell VM [1]; library: Phytochemical)	dopaminergic neuron differentiation score (ReNCell VM [2]; library: Phytochemical)
NCCCCNCCCN [Spermidine trihydrochloride]	inactive: 0	inactive: 0	inactive: 0	inactive: 1				
CCOC(=O)C1=C(C)NC(C)=C(C(=O)OC)C1c1cccc(Cl)c1Cl (configuration not stated) [Felodipine]	inactive: -1		inactive: 0		inactive: 0	inactive: 0		
